PubChem BioAssay AID1347075 (National Center for Advancing Translational Sciences (NCATS), 2019)
Screen size: about 400,000 compounds; about 5,500 (1.4%) were called active. Inconclusive means that the source gave no clear call. Such entries were picked first, then a sample of the others. Calls come from the whole dose curve; as a rule, active = well fitted cell-killing curve with a large enough effect; inconclusive = small, poorly fitted or top-dose-only effect, or effect the other way; inactive = flat fitted curve, though single readings scatter. Potencies beside an inconclusive call are fits to weak or partial responses and may not hold up.

experiment: qHTS assay for MDR1-selective chemotherapeutics: Primary screen using the parental adenocarcinoma cell KB-3-1; settings: KB-3-1 viability, CellTiter-Glo ATP luminescence, 72 h; activity change, negative = cytotoxic: at 46.1 µM (top of the series); note: nearly all actives have a fitted effect of over 60% in size
Summary of the method: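 Using CellTiter-Glo luminescence, growth of non-resistant KB-3-1 adenocarcinoma cells is assessed 72 h after pin-tool compound addition at 37 °C. Normalized responses across the concentration series yield fitted curves.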
% is set by controls: 0 for no effect and ±100 for the full control effect; potency is the fitted concentration of half-maximal effect.

Row | Compound | Potency | activity change, negative = cytotoxic
1 | CCOc1cc(/C=C2\COc3ccccc3C2=O)cc(Br)c1OCC(=O)N(C)C | inconclusive: 29.1 µM [cytotoxic, single point] | –
2 | N/C(=N\N=C\c1cccc([N+](=O)[O-])c1)c1nonc1N | inconclusive: 18.4 µM [cytotoxic, single point] | –
3 | O=[N+]([O-])c1cc(Cl)cc2c1nc(NCCO)c1ccccc12 | active: 18.4 µM | –
4 | CC(=O)N1N=C(c2ccncc2)CC1c1ccccc1O (stereo unspecified) | inconclusive: 14.6 µM [rising, partial curve, poor fit] | –
5 | COc1ccccc1CNC(=O)CN1C(=O)COc2ccc(S(=O)(=O)N3CCC(C)CC3)cc21 | – | inactive: 0.887%
6 | Cn1c(=O)cc(OCC(=O)NCc2cccs2)c2ccccc21 | inconclusive: 32.6 µM [cytotoxic, single point] | –
7 | COc1cc(OC)c(-c2nn3c(-c4n[nH]c5c4CCC5)nnc3s2)cc1OC | inconclusive: 10.3 µM [rising, partial curve, poor fit] | –
8 | Cc1nc2nncn2c(NCc2ccc(Cl)cc2)c1C | active: 2.59 µM | –
9 | CC(C)C(=O)N(Cc1ccccc1)S(=O)(=O)c1ccc2c(c1)oc(=O)n2C | inconclusive: 29.1 µM [cytotoxic, single point] | –
10 | Cc1ccc(S(=O)(=O)Nc2ccc3c(c2)CC(=O)N([C@H](C)CO)C[C@@H](C)[C@H](CN(C)Cc2ccc(-c4ccccc4)cc2)O3)cc1 | inconclusive: 29.1 µM [cytotoxic, single point] | –
11 | CC(C)(C)N1C(=O)c2ccccc2NC(=O)C1C(=O)Nc1ccc2c(c1)OCCO2 (stereo unspecified) | – | inactive: 6.81%
12 | COC(=O)c1c(NC(=O)CN2CCN(Cc3ccc4c(c3)OCO4)CC2)sc(C)c1C | inconclusive: 11.2 µM [cytotoxic, partial curve, poor fit] | –
13 | CCn1nc(C(=O)NCCc2ccc(S(N)(=O)=O)cc2)c2ccccc2c1=O | inconclusive: 20.6 µM [rising, partial curve, poor fit] | –
14 | Oc1ccc(/C=C/c2ccc3ccccc3n2)cc1 | inconclusive: 20.6 µM [cytotoxic, single point] | –
15 | COc1ccccc1NC(=S)N=Nc1c(O)[nH]c2ccc(Br)cc12 | active: 2.31 µM | –
16 | O=C(Nc1cccc2cccnc12)c1ccc2sc([C@@H]3O[C@H](CO)[C@H](O)[C@H](O)[C@H]3O)nc2c1 | inconclusive: 29.1 µM [rising, partial curve, poor fit] | –
17 | O=C(/C(=N\Nc1ccc([N+](=O)[O-])cc1)Sc1nnnn1-c1ccccc1)c1ccccc1 | – | inactive: 27.6%
18 | CC[N+](CC)(CC)c1ccc(/C=C/c2ccnc3ccccc23)cc1 | active: 0.58 µM | –
19 | Cc1cc(Br)ccc1SCC(=O)OC/C(O)=C(\C#N)c1nc2ccccc2[nH]1 | inconclusive: 29.1 µM [cytotoxic, single point] | –
20 | O=C(NCc1ccco1)c1ccc(Cn2c(=S)[nH]c3ccccc3c2=O)cc1 | inconclusive: 20.6 µM [rising, single point] | –
21 | O=C(NCc1ccccn1)c1cccc(S(=O)(=O)Nc2ccccc2Cl)c1 | – | inactive: 7.3%
22 | Oc1ccc(Cl)cc1CNc1ccc(Br)cn1 | inconclusive: 29.1 µM [cytotoxic, single point] | –
23 | COc1cc2cc(C(=O)N3CCN(Cc4ccc5c(c4)OCO5)CC3)[nH]c2cc1OC | inconclusive: 1.84 µM [cytotoxic, partial curve, poor fit] | –
24 | Cc1nccc(-c2cccc(N/N=C(\C#N)C(=O)c3ccccc3)c2)n1 | inconclusive: 23.1 µM [cytotoxic, single point] | –

Row | Compound | Potency | activity change, negative = cytotoxic
25 | CC(C1SC(=S)NC1=O)C1SC(=S)NC1=O (stereo unspecified) | – | inactive: 2.92%
26 | COc1ccccc1-n1c(CNC(=O)c2ccco2)nnc1SCC(=O)Nc1nccs1 | inconclusive: 16.4 µM [cytotoxic, partial curve] | –
27 | CC(OC(=O)c1cccc(-n2cnnn2)c1)C(=O)Nc1ccccc1F (stereo unspecified) | – | inactive: 6.83%
28 | COc1ccc(CCNC(=O)c2ccc(NC3=NC4CS(=O)(=O)CC4S3)cc2)cc1OC (stereo unspecified) | inconclusive: 20.6 µM [rising, single point] | –
29 | COc1cc(-c2cc(=O)c3c(O)cc(O)cc3o2)ccc1O | – | inactive: -0.0136%
30 | COc1cc2nc(/C=C/c3cc(OC)c(OC)c(OC)c3)sc2cc1SC | active: 23.1 µM | –
31 | COc1ccc(-c2ccc(C(=O)Nc3ccc(NC(C)=O)cc3)c3occc23)c(C)c1 | – | inactive: -0.155%
32 | CC(C)=CCc1ccc(O)c(=O)cc1C(C)C | inconclusive: 8.2 µM [cytotoxic, partial curve] | –
33 | CCOCCCNC(=O)c1cc(-c2ccc(Br)s2)nc2ccccc12 | inconclusive: 0.164 µM [rising, full curve] | –
34 | CCOc1cc(CNCCSc2nnnn2C)cc(Br)c1OCc1ccccc1 | inconclusive: 29.1 µM [cytotoxic, single point] | –
35 | O=Cc1cn(CC(=O)N2CCCc3ccccc32)c2ccccc12 | inconclusive: 23.1 µM [cytotoxic, partial curve, poor fit] | –
36 | Cc1cc(C)nc(/N=C(\N)Nc2ccc(CC(=O)OC(C)C)cc2)n1 | inconclusive: 16.4 µM [cytotoxic, partial curve] | –
37 | COc1ccc(C2CC(c3ccc([N+](=O)[O-])cc3)=NN2C(C)=O)cc1 (stereo unspecified) | inconclusive: 2.91 µM [cytotoxic, partial curve, poor fit] | –
38 | O=C1CC(c2ccccc2Oc2cccc(Cl)c2)C(n2cncn2)C(=O)C1C1NCCc2ccccc21 (stereo unspecified) | – | inactive: 5.49%
39 | CCn1nnnc1SCC(=O)N1CCCCC1 | – | inactive: 4.24%
40 | COc1cc2c(cc1OC)C(c1cccs1)N(C(=O)C(C)C)CC2 (stereo unspecified) | inconclusive: 35.5 µM [cytotoxic, single point] | –
41 | Cc1ccc(NC(=O)c2cc(S(=O)(=O)NCCc3ccccc3)ccc2F)cc1Cl | – | inactive: -3.32%
42 | CCN1CCN(c2oc(-c3ccc(COc4ccc(C)cc4)o3)nc2C#N)CC1 | – | inactive: -9.87%
43 | COc1ccc(C2CC(=O)N(Cc3ccc(F)cc3)c3ccccc3S2)cc1 (stereo unspecified) | inconclusive: 23.1 µM [cytotoxic, single point] | –
44 | COc1ccc(NC(=O)C2CCCNC2)cc1OCC(C)C (stereo unspecified) | inconclusive: 16.4 µM [cytotoxic, partial curve] | –
45 | CCOC(=O)N1CCN(C(=O)CSc2cc(C)nc3c(-c4ccccc4OC)c(C)nn23)CC1 | – | inactive: 0.498%
46 | O=C(CN(Cc1ccccc1)C(=O)CCC(=O)Nc1ccccn1)NCc1ccc(F)cc1 | inconclusive: 29.1 µM [rising, single point] | –
47 | Fc1ccc(C2c3cccn3CCN2C(=S)Nc2cccc(Br)c2)cc1 (stereo unspecified) | inconclusive: 18.4 µM [cytotoxic, partial curve, poor fit] | –
48 | O=C1C(=O)N(c2nccs2)C(c2ccccc2F)/C1=C(\O)c1ccc2c(c1)OCCO2 (stereo unspecified) | inconclusive: 18.4 µM [cytotoxic, single point] | –

Row | Compound | Potency | activity change, negative = cytotoxic
49 | NC1=NC2(CCC(c3ccccc3)CC2)n2c(nc3ccccc32)N1 (stereo unspecified) | inconclusive: 18.4 µM [cytotoxic, single point] | –
50 | COC(=O)CCC(=O)OC1(C)C(=O)C2=COC(c3ccc(OC)cc3)=CC2=C(Br)C1=O (stereo unspecified) | – | inactive: -1.33%
51 | O=C(O)CP(=O)(O)O | inconclusive: 29.1 µM [rising, partial curve, poor fit] | –
52 | Cc1cc(C)cc(N(C(=O)c2cc3ccccc3oc2=O)C2C=CS(=O)(=O)C2)c1 (stereo unspecified) | – | inactive: -5.36%
53 | COc1ccc(NS(=O)(=O)c2cc(NC(=O)Cn3cnc4c3c(=O)n(C)c(=O)n4C)ccc2C)cc1 | inconclusive: 0.651 µM [cytotoxic, full curve, poor fit] | –
54 | Cc1c(NC(=O)c2ccco2)cccc1C(=O)NN1C(=O)c2ccccc2C1=O | – | inactive: 2.86%
55 | CCCN1C(=O)/C(=N\OCC(=O)NC23CC4CC(CC(C4)C2)C3)c2ccccc21 | – | inactive: 3.67%
56 | CS(=O)(=O)c1ccc(Cl)c(NC(=O)COC(=O)CCCN2C(=O)c3cccc4cccc(c34)C2=O)c1 | – | inactive: -2.1%
57 | CCC(=O)Nc1c(-c2ccc3ccccc3c2)nc2ccccn12 | – | inactive: -1.61%
58 | COc1cc(F)ccc1-c1csc(C(O)(c2ccccc2)C(F)(F)F)n1 (stereo unspecified) | – | inactive: -0.0928%
59 | CC(C)(C)NS(=O)(=O)c1ccc(/C=C/C(=O)O)cc1 | – | inactive: 5.02%
60 | O=C(CN1CCC(C(=O)c2ccc(Cl)cc2)CC1)Nc1ccc2c(c1)OCCO2 | inconclusive: 20.6 µM [cytotoxic, single point] | –
61 | CCc1cc2c(=O)c(-c3ccc(F)cc3)c(C)oc2cc1OCC(=O)O | – | inactive: -5.35%
62 | COc1ccc(OC)c(NC(=O)c2cc(-c3cc(C)cc(C)c3O)n[nH]2)c1 | – | inactive: -16.2%
63 | CC(C)(C)OC(=O)NCCCNc1ncnc2ccc(-c3ccc4c(c3)OCO4)cc12 | inconclusive: 29.1 µM [cytotoxic, single point] | –
64 | Cc1ccc(-c2nnc(N3CCN(C(=O)COc4ccccc4)CC3)c3ccccc23)cc1 | active: 18.4 µM | –
65 | Cc1ccccc1Sc1ncnc2onc(C)c12 | inconclusive: 25.9 µM [cytotoxic, single point] | –
66 | CCc1cccc(-n2c(C)nc3c(cnn3-c3ccc(C)c(C)c3)c2=O)c1 | inconclusive: 29.1 µM [cytotoxic, single point] | –
67 | CCOc1ccc(NC(=O)CSc2nc(C)c(C(=O)Nc3ccccc3)c(-c3ccc(Cl)cc3)c2C#N)cc1 | – | inactive: 3.03%
68 | COc1cccc(NC(=O)Nc2ccc(C)c(Cl)c2)c1 | – | inactive: -0.362%
69 | Cc1ccc(NC(=O)c2c(C)noc2-c2snnc2C)cc1 | inconclusive: 18.4 µM [cytotoxic, single point] | –
70 | O=C(Nc1nc2ccccc2[nH]1)c1ccccc1 | inconclusive: 23.1 µM [cytotoxic, single point] | –
71 | Cc1ncc(S(=O)(=O)c2ccccc2)c(-c2ccccc2Cl)n1 | – | inactive: -2.26%

In the list so far, 4 contain two or more sulfur atoms:
Row | Compound | Potency | activity change, negative = cytotoxic
25 | CC(C1SC(=S)NC1=O)C1SC(=S)NC1=O (stereo unspecified) | – | inactive: 2.92%
26 | COc1ccccc1-n1c(CNC(=O)c2ccco2)nnc1SCC(=O)Nc1nccs1 | inconclusive: 16.4 µM [cytotoxic, partial curve] | –
28 | COc1ccc(CCNC(=O)c2ccc(NC3=NC4CS(=O)(=O)CC4S3)cc2)cc1OC (stereo unspecified) | inconclusive: 20.6 µM [rising, single point] | –
30 | COc1cc2nc(/C=C/c3cc(OC)c(OC)c(OC)c3)sc2cc1SC | active: 23.1 µM | –
